PubChem BioAssay AID1259308 – NCATS – 2017
Here is an unselected part of about 59,000 reagents. About 1,510 of them (2.6%) were called active. 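Calls use total luciferase alone and ignore viability, so some active siRNAs may act by altering cell number.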 Further read-outs or replicates are left out here.

Purpose: 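Genes whose loss raises luciferase production in HEK293 cells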 (primary screen)
Cells: human HEK293 embryonic kidney cells stably expressing firefly luciferase (HEK-CMV-Luc2-Hygro)
Reagents: single siRNA against human genes, 0.8 pmol siRNA per well
Time to read-out: 72 h
Measurement: 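Reporter luminescence and viable-cell signal on separate replicate plates, given as percent of non-targeting control and median/MAD z-scores, plus per-cell luciferase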
Direction: total luciferase, z-score and total luciferase, % of control: higher = more reporter protein produced; luciferase per cell, z-score: higher = more reporter output per viable cell
Active means: 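An siRNA counts as active if its total luciferase robust z-score exceeds 3; genes with two or more such siRNAs out of three were retested with fresh siRNAs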
Calls: active = raised luciferase; inactive = no rise

no.	gene symbol	PubChem SID	total luciferase, z-score	total luciferase, % of control	luciferase per cell, z-score	Outcome
1	NEU2	SID160723945	0.338	88.6	0.354	inactive
2	NEU2	SID160723946	-0.951	63	-0.16	inactive
3	NEU2	SID160723947	-1.64	49.2	-1.95	inactive
4	PRRT1	SID160750642	0.252	86.9	-0.129	inactive
5	PRRT1	SID160750643	1.08	103	1.23	inactive
6	PRRT1	SID160750644	-0.325	75.4	-0.717	inactive
7	MFSD6	SID160742295	0.0545	83	0.349	inactive
8	MFSD6	SID160742296	1.9	120	0.996	inactive
9	MFSD6	SID160742297	-0.205	77.8	0.686	inactive
10	XPO5	SID160746144	-0.194	78	-0.574	inactive
11	XPO5	SID160746145	-0.782	66.3	-1.21	inactive
12	XPO5	SID160746146	-0.945	63.1	-1.14	inactive
13	PABPC1	SID160738213	2.61	134	1.57	inactive
14	PABPC1	SID160738214	2.74	136	2.65	inactive
15	PABPC1	SID160738215	-0.31	75.7	0.218	inactive
16	GABRB2	SID160768512	-1.95	43	-2.09	inactive
17	GABRB2	SID160768523	-1.09	60.3	-1.76	inactive
18	GABRB2	SID160768529	0.311	88.1	0.012	inactive
19	SH3RF1	SID160746451	-0.42	73.5	-0.987	inactive
20	SH3RF1	SID160746452	0.288	87.6	0.0212	inactive
21	SH3RF1	SID160746454	0.799	97.8	0.314	inactive
22	ANXA7	SID160717907	-0.147	79	0.322	inactive
23	ANXA7	SID160717916	0.802	97.8	0.518	inactive
24	ANXA7	SID160717927	1.55	113	1.11	inactive
